The values below come from paper PMC4603714 (Drug Design, Development and Therapy, 2015).

The subject of one assay is KG-1 cells. The following applies: read-out: KG-1 IC50; MTT; ref Zhang et al.[8]; cited from earlier work.
The subject of the next assay is H7402 cells. To be noted: read-out: H7402 IC50; MTT; ref Zhang et al.[8]; cited from earlier work.
The next assay has as its system HeLa cells. The following applies: read-out: HeLa IC50; MTT; ref Zhang et al.[8]; cited from earlier work.
Another assay has as its system U937 cells. The following applies: read-out: U937 IC50; MTT; ref Zhang et al.[8]; cited from earlier work.
A further assay has as its system U266 cells. The following applies: read-out: U266 IC50; MTT; ref Zhang et al.[8]; cited from earlier work.
A further assay has as its system U937 xenograft. The assay is described as follows: In vivo antitumor assay in U937 xenograft model. The following applies: U937 xenograft in nude mice, 100 mg/kg once a day orally for 12 days. On the set-up: species or system male athymic nude mice (BALB/c-nu). Summed up: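 U937 cells were injected subcutaneously into the right flank of male BALB/c-nu mice aged 5–6 weeks. After about 10 days, at roughly 100 mm3, mice were randomized six per group. Dosing was oral, 100 mg/kg daily for 12 days, with controls given an equal volume of PBS. Calipers were used every 3 days, V = ab2/2, and RTV = Vt/V0. Body weight was tracked. Tumors were weighed and organs inspected at necropsy. Analysis used a two-tailed t-test, P<0.05.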

In the next assay the test system is HCT116 cells. To be noted: read-out: HCT116 IC50; MTT; ref Zhang et al.[8]; cited from earlier work.

As to `O=C(CCCCCCC(=O)Nc1ccccc1)NO` [SAHA, suberoylanilide hydroxamic acid], the IC50 was 2.7 µM in the assay on KG-1 cells; 8 µM with H7402 cells; 9 µM with HeLa cells; 4.2 µM with U937 cells; 1.4 µM with U266 cells; 4.1 µM in the assay on HCT116 cells. In addition, the “Relative increment ratio (T/C)” value in the assay with U937 xenograft was determined as 49%.
